Data on 7 molecules can be found in paper PMC10411464.

Chains of the proteins cited; added tags and fusions are not shown.
UniProt P01100: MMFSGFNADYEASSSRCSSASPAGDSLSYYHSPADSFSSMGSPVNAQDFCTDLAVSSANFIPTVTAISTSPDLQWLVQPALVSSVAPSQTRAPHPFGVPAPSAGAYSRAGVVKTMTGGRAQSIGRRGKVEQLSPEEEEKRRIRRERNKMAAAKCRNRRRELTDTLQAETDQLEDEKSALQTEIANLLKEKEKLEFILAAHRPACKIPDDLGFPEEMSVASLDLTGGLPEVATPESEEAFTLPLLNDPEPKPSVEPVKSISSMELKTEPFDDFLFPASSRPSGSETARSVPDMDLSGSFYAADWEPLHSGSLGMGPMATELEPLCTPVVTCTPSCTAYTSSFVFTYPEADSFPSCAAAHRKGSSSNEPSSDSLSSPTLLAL
UniProt Q96KQ7: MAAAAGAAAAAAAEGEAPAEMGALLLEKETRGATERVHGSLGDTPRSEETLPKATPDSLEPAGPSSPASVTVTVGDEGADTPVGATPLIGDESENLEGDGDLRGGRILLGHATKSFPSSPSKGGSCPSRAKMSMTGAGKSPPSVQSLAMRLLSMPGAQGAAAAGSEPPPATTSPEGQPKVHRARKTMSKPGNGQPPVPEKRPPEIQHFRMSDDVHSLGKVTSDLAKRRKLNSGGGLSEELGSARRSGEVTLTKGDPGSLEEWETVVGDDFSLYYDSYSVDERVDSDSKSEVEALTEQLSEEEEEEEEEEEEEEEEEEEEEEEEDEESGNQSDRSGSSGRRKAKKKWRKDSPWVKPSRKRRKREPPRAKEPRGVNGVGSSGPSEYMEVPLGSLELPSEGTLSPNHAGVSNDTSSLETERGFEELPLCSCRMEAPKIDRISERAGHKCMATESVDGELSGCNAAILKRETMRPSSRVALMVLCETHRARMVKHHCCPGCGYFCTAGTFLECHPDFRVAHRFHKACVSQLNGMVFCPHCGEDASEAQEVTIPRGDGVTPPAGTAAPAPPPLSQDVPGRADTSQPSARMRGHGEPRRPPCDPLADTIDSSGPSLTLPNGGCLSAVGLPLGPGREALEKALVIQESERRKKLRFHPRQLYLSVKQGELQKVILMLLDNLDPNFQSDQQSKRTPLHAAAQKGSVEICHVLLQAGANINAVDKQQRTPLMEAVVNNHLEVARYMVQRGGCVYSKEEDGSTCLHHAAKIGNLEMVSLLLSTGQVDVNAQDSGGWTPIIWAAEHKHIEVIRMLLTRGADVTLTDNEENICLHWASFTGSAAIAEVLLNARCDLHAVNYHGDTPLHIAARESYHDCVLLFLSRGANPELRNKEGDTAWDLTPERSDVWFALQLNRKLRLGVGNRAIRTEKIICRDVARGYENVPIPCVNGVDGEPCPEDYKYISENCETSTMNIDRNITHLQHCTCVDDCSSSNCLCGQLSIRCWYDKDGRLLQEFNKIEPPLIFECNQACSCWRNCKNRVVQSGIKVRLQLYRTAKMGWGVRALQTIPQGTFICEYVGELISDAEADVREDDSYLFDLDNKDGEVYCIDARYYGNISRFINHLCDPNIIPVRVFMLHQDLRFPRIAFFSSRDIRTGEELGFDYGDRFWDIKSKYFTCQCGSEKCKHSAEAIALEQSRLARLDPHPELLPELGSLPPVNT
UniProt Q9BZ95: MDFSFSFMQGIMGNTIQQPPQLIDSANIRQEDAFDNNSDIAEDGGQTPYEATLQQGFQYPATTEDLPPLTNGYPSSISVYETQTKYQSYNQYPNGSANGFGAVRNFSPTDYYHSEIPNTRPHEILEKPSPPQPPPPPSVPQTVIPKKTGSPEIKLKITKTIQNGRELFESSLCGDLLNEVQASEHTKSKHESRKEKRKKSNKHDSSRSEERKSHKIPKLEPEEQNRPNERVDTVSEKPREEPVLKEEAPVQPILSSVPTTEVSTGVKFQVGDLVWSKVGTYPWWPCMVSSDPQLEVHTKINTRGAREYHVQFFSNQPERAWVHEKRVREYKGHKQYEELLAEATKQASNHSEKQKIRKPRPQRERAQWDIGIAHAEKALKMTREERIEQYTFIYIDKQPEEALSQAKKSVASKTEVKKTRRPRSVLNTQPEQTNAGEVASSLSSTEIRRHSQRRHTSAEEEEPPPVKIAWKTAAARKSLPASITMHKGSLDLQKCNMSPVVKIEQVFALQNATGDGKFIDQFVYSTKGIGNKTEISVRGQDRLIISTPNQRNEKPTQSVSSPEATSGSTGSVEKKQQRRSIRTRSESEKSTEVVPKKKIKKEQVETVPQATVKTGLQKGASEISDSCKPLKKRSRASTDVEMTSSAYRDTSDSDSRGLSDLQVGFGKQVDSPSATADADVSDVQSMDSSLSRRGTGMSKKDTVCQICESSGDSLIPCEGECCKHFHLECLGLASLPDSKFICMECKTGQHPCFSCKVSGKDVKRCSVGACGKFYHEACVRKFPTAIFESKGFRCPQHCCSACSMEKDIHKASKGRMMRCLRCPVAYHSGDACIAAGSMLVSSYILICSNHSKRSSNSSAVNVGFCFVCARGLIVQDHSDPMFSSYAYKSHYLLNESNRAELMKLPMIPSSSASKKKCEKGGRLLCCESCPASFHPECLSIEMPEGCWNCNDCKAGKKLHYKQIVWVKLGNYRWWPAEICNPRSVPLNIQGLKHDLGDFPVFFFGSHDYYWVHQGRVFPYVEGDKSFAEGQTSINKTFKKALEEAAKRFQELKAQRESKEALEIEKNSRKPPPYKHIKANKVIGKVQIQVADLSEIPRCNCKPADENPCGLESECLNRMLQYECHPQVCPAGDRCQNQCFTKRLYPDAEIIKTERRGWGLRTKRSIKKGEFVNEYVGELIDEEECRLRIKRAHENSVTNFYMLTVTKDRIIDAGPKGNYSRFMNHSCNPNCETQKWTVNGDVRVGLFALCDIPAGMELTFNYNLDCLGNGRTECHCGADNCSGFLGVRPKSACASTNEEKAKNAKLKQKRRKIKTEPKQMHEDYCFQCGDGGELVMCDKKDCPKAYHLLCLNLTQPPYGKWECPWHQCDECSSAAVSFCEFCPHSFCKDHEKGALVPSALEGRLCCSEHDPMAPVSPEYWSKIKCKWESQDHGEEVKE
UniProt O15047: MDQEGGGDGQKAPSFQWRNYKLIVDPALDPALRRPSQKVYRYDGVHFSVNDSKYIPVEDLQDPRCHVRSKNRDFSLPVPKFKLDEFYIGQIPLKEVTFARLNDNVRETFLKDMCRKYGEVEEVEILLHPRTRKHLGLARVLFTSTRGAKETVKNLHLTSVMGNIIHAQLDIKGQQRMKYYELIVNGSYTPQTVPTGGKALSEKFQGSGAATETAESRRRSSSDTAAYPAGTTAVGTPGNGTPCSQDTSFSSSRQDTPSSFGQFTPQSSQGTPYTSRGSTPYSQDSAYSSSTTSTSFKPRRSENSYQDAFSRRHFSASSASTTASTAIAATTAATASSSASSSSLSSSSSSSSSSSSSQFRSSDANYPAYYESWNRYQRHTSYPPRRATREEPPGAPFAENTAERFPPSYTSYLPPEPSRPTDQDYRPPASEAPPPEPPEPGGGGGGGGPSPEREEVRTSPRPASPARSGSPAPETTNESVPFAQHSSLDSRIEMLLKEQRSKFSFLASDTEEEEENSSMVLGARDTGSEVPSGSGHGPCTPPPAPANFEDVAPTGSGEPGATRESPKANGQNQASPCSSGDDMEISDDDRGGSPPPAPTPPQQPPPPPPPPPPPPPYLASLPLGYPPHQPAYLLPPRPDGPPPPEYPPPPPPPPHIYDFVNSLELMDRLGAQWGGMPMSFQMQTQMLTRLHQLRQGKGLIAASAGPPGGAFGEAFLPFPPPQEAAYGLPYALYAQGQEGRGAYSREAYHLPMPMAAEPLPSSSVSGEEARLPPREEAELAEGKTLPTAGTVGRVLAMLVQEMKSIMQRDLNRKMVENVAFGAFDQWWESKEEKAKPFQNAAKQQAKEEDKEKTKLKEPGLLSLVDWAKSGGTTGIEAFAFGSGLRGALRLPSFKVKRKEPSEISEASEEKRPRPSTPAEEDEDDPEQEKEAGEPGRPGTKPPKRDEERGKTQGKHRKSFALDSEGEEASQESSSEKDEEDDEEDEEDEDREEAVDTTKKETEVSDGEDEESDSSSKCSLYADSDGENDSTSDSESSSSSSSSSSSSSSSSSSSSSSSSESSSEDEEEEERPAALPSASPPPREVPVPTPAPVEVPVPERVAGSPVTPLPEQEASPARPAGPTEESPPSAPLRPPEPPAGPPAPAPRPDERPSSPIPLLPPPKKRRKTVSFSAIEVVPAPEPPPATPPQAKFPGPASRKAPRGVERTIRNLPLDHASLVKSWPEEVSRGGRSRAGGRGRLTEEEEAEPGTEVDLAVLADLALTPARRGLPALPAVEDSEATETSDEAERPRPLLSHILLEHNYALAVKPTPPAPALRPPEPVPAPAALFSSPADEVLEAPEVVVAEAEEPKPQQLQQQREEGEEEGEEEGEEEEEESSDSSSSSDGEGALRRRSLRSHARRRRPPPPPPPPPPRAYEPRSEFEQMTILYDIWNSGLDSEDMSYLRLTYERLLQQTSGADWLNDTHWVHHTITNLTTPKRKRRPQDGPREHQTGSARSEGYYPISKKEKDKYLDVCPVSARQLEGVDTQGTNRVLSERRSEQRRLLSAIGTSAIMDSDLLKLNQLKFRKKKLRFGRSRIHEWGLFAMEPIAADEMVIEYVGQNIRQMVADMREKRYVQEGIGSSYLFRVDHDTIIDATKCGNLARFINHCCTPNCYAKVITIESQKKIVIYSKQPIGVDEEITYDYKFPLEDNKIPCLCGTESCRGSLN
UniProt O14744: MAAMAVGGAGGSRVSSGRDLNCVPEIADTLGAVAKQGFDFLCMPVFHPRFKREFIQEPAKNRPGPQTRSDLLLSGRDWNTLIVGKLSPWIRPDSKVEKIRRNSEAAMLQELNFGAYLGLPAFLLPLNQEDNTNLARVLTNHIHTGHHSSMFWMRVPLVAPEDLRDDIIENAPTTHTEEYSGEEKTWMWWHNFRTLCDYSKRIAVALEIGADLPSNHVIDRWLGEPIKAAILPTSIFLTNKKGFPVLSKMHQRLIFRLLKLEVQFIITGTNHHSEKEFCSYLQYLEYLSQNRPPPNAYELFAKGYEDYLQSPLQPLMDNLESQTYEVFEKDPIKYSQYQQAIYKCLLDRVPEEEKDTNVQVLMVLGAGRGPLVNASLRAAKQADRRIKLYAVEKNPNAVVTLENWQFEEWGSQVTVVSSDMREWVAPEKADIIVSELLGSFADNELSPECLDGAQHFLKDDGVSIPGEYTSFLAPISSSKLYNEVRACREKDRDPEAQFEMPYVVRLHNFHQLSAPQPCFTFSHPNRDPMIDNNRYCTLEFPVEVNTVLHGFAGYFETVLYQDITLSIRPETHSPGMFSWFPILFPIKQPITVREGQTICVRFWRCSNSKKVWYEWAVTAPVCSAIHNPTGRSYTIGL

No constants are given. Whether binding was seen depends on the method and setting. Binding seen in cells or lysates may run through a third protein. These calls come from enrichment with a bait or labelling near it, and not all partners need be listed. Tags and fused reporters may be left off the sequences shown.

In the experiment the target is Myc-c-Fos (human) (UniProt P01100). The experiment can be described thus: affinity purification with mass spectrometry; anti-Myc immunoprecipitate from Myc-c-Fos-overexpressing cells; SDS-PAGE, in-gel trypsin digestion, SCX LC with mass spectrometry.

On to “Histone-lysine N-methyltransferase EHMT2 (from UniProt Q96KQ7 1-1210) (enzyme)”, for which the binding entry is listed as “binds”.

As for “Histone-lysine N-methyltransferase NSD2 (from UniProt O96028-1 1-1365) (enzyme)”, the binding result is recorded as “binds”.

Regarding “Histone-lysine N-methyltransferase NSD3 (from UniProt Q9BZ95 1-1437) (enzyme)”, the binding result is “binds”. With “Histone-lysine N-methyltransferase SETD1A (from UniProt O15047 1-1707) (enzyme)”, the binding entry is on record as “binds”.

In the case of “Protein arginine N-methyltransferase 5 (from UniProt O14744 1-637) (enzyme)”, the binding result was “binds”.

B1: Histone-lysine N-methyltransferase SMYD3 (enzyme, UniProt Q9H7B4-1 1-428)
chain: MEPLKVEKFATAKRGNGLRAVTPLRPGELLFRSDPLAYTVCKGSRGVVCDRCLLGKEKLMRCSQCRVAKYCSAKCQKKAWPDHKRECKCLKSCKPRYPPDSVRLLGRVVFKLMDGAPSESEKLYSFYDLESNINKLTEDKKEGLRQLVMTFQHFMREEIQDASQLPPAFDLFEAFAKVICNSFTICNAEMQEVGVGLYPSISLLNHSCDPNCSIVFNGPHLLLRAVRDIEVGEELTICYLDMLMTSEERRKQLRDQYCFECDCFRCQTQDKDADMLTGDEQVWKEVQESLKKIEELKAHWKWEQVLAMCQAIISSNSERLPDINIYQLKVLDCAMDACINLGLLEEALFYGTRTMEPYRIFFPGSHPVRGVQVMKVGKLQLHQGMFPQAMKNLRLAFDIMRVTHGREHSLIEDLILLLEECDANIRAS
As for B1, the binding result is given as “binds”.

B2: Methyltransferase-like protein 13 (enzyme, UniProt Q8N6R0-5 1-699)
chain: MNLLPKSSREFGSVDYWEKFFQQRGKKAFEWYGTYLELCGVLHKYIKPREKVLVIGCGNSELSEQLYDVGYRDIVNIDISEVVIKQMKECNATRRPQMSFLKMDMTQMEFPDASFQVVLDKGTLDAVLTDEEEKTLQQVDRMLAEVGRVLQVGGRYLCISLAQAHILKKAVGHFSREGWMVRVHQVANSQDQVLEAEPQFSLPVFAFIMTKFRPVPGSALQIFELCAQEQRKPVRLESAERLAEAVQERQQYAWLCSQLRRKARLGSVSLDLCDGDTGEPRYTLHVVDSPTVKPSRDNHFAIFIIPQGRETEWLFGMDEGRKQLAASAGFRRLITVALHRGQQYESMDHIQAELSARVMELAPAGMPTQQQVPFLSVGGDIGVRTVQHQDCSPLSGDYVIEDVQGDDKRYFRRLIFLSNRNVVQSEARLLKDVSHKAQKKRKKDRKKQRPADAEDLPAAPGQSIDKSYLCCEHHKAMIAGLALLRNPELLLEIPLALLVVGLGGGSLPLFVHDHFPKSCIDAVEIDPSMLEVATQWFGFSQSDRMKVHIADGLDYIASLAGGGEARPCYDVIMFDVDSKDPTLGMSCPPPAFVEQSFLQKVKSILTPEGVFILNLVCRDLGLKDSVLAGLKAVFPLLYVRRIEGEVNEILFCQLHPEQKLATPELLETAQALERTLRKPGRGWDDTYVLSDMLKTVKIV
For B2, the binding result was “binds”.
